What was measured:
dopaminergic receptors = details: in vitro
histaminergic receptors = details: in vitro
mouse boric marrow = details: in vivo
[1] = human, in vivo
clinical [2] = details: human, plasma, po
[3] = system: plasma protein binding of warfarin; assay: Plasma protein binding of warfarin; assay type: in vitro ADME; details: sertraline up to 300 ng/mL, desmethylsertraline up to 200 ng/mL
adrenergic beta receptor = details: in vitro
human lymphocytes = details: in vitro, with or without metabolic activation
cholinergic receptors = details: in vitro
[4] = system: adrenergic alpha1 receptor; details: in vitro
[5] = system: plasma protein binding of propranolol; assay: Plasma protein binding of propranolol; assay type: in vitro ADME; details: sertraline up to 300 ng/mL, desmethylsertraline up to 200 ng/mL
[6] = system: adrenergic alpha2 receptor; details: in vitro
benzodiazepine receptors = details: in vitro
GABA receptors = details: in vitro
[7] = system: serotonergic 5HT1A receptor; details: in vitro
clinical [8] = details: human, plasma, time to reach peak plasma concentration, single dose
[9] = single dose, 50 to 200 mg
[10] = system: serotonergic 5HT1B receptor; details: in vitro

CN[C@H]1CC[C@@H](c2ccc(Cl)c(Cl)c2)c2ccccc21.Cl [sertraline, (1S-cis)-4-(3,4-dichlorophenyl)-1,2,3,4-tetrahydro-N-methyl-1-naphthalenamine hydrochloride]
affinity for dopaminergic receptors (dopaminergic receptors): no significant affinity | affinity for histaminergic receptors (histaminergic receptors): no significant affinity | genotoxic effects, cytogenetic aberrations in mouse bone marrow (mouse boric marrow): no genotoxic effects | share of the plasma radioactivity [1]: less than 5% | administered radioactivity accounted for in feces ([1]; 216 h): 40-45% | administered radioactivity recovered in urine ([1]; 216 h): 40-45% | Tmax (clinical [2]): 4.5 to 8.4 h | alteration of plasma protein binding of warfarin [3]: did not alter | affinity for adrenergic beta receptors (adrenergic beta receptor): no significant affinity | genotoxic effects, cytogenetic aberrations in human lymphocytes (human lymphocytes): no genotoxic effects | affinity for cholinergic receptors (cholinergic receptors): no significant affinity | affinity for adrenergic alpha1 receptors [4]: no significant affinity | alteration of plasma protein binding of propranolol [5]: did not alter | affinity for adrenergic alpha2 receptors [6]: no significant affinity | affinity for benzodiazepine receptors (benzodiazepine receptors): no significant affinity | affinity for GABA receptors (GABA receptors): no significant affinity | affinity for serotonergic 5HT1A receptors [7]: no significant affinity | Tmax (clinical [8]; with food): 5.5 h | Tmax (clinical [8]; without food): 8 h | area under plasma concentration time curve (AUC) dose proportionality [9]: proportional to dose | affinity for serotonergic 5HT1B receptors [10]: no significant affinity

Reference: patent US6281248A, “Composition for treating asthma” (priority 2000, dated 2001)
